Data published in publication doi:10.1101/2020.12.22.423978.
Results are given in words; binding and its absence hold for the method and conditions named. Binding seen in cells or lysates may run through a third protein. Some results given as binding are weak or reduced against the parent protein; the word gives no strength.

Protein sequences, listed by entry. Tags and fused reporters are not part of them.
UniProt E9PY46: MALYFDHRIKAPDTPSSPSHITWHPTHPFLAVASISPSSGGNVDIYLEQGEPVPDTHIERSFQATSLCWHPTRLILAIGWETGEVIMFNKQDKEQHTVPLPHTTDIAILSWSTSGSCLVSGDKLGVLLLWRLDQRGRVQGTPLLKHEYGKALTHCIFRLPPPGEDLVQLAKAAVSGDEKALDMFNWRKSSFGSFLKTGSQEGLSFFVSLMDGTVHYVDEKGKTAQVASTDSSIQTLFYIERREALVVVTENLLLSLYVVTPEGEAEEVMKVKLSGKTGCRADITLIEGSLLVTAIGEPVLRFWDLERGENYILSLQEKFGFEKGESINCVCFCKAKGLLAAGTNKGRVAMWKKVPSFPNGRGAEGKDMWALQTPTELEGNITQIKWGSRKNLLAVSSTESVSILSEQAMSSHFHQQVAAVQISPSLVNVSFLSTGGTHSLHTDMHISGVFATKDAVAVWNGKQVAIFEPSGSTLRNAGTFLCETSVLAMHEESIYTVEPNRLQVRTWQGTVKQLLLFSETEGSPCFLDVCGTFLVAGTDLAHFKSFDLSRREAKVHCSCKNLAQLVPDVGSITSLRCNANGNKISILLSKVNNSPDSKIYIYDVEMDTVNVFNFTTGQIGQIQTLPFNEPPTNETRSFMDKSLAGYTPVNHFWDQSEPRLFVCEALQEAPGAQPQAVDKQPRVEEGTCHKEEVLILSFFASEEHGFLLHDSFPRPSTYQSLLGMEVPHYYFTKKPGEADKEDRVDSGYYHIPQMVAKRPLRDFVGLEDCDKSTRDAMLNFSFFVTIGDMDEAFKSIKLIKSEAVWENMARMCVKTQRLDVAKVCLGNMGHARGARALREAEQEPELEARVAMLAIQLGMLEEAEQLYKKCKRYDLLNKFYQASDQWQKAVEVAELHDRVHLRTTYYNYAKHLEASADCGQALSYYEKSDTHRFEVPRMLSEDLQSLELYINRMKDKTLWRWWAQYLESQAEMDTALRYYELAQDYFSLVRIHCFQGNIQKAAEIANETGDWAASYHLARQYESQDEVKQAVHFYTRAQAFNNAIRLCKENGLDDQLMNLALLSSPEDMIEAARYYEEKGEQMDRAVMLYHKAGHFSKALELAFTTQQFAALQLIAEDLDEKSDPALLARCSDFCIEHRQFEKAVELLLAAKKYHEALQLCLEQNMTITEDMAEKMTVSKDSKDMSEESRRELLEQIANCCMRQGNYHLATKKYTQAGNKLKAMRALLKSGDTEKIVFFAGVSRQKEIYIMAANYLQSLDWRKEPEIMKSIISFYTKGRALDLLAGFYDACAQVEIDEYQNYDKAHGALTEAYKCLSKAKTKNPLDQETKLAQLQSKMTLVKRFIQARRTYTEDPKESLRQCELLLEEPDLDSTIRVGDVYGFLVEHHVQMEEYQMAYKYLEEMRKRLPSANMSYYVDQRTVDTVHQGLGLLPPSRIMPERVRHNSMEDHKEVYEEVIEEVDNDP

Molecular target: IFT140 (mouse (endogenous in E11.5 embryos)) (UniProt E9PY46)
Test: co-IP

binding	Binder
binds	IFT139/TTC21B/THM1 (protein, UniProt Q0HA38 1-1315) MDSQGLKTLINYYCQERYYHHVLLVASEGMKKYSSDPVFRFYHAYGTLMEGKAQEALREFEAIKNKQDVSLCSLMALMYVHKMSPNPDREAILELDTKMKEQRKEAGRKALYHAGLFLWHIGRHDKAREYIDRMSKMPHDSNEGPILKAWLDITRGKEPYAKKALRYFEEGLQDGNDIFALLGKVLCLEIRQNYSGALETVSQIIVNFPSFLPAFEKKMKLQLALQDWDQTVETAQRLLLQDNHNVEALRMLALYYLCREGDVEKAATKLENLGNALDVMEPQNAQLFYKITLAFSRTCGRNQLILQKVQSFLEKAFSLTPQQAEIATELGYQMILQGKVKEAWKWYRTAMTLNESNISAVTGLIRCQLIEGQLQDADQQLEFFSEFQQSMGKSAELMYLHAVLATKKNNRQDEVINLLNDVVNTHFSHLEDLPLGIQYFEKLNPDFLLEVVTEYLNLCPIQPAGPGQPLSPVLRRCSSVLETIIRSVPGLPQAVFLMAKVKYLSGDTEAAYNNLQHCLEHSPSYAEAHLLMAQVYLSQDKVKLCSQSLELCLSYNFNVREYPLYHLIKAQSQKKMGEVAEAIKTLHMAMNLPGMRRSRASSKSKHRTEVDASHRLSIFLELVEVHRLNGEQHEAAKVLQDAIHEFSGTCEELRVTIANADLALAQGDTDRALSMLRNVTTEQPYFIEAKEKMADIYLKHRKEKMLYITCYREIAERMPSPRSFLLLGDAYMNIQEPEEAIVAYEQALNQNPKDGTLARKIGKALVKTHNYSKAITYYEAALKSGQQNCLCYDLAELLLRLKLYEKAEKVLQHSLAHEPVSELSALMVDGRSQVLLAKVYSKMERPSDAIAALQQARELQARILKRVQMEQPDAVPSQKHFAAEICAEIAKHSAAQRDYEKAITFYREALVHCETDSKIMLELAQLYLAQEDLDASLRHCALLLQRDQDNEPATMLMADLMFRKQDYEQAVYHLQQLLDRKPDNFMTLSRLIDLLRRCGKLEDVPRFFLMAEKHNSRTKLEPGFQYCKGLHFWYTGEPNDALRHFNKARKDSDWGQNALYNMIEICLNPDNETIGGEVFENLNGDLGTSPEKQESVQLAVRTAEKLLKELKPQTVQGRLQLRIMENCCLMATKQKSSVEQALNTFTEIAASEKDHIPALLGMATAYMILKQTPKARNQLKRIAKMPWNPIEAEDLEKSWLLLADIYIQSAKYDMAEELLKRCLCHNRSCCKAYEYMGYIMEKEQAYTDAAFNYEMAWKHSNQTNPAVGYKLAFNYLKAKRYVDAIDVCHQVLEAHPTYPKIRKDILDKARASLRP
binds	IFT43 (protein, UniProt Q9DA69 1-206) MDDLLDLGEERRRSSATSGAKMGRRAHQESTQAENYLNSKNSSLTQTGEAPPPKPPRRQGGWADDSMKMAKLGKKVSEEMEDHRLRQQNLMGSDDDDIPVIPDLEDVQEEDFVLQVASPPSIQVNRVMTYRDLDNDLMKYSAFQTLDGEIDLKLLTKVLAPEHEVREDDVGWDWDHLYTEVSSELLTEWDLLRAEKEDPVGPSRYI
